## Primary screen of a compound library

From ChEMBL document CHEMBL3988442, “University of Dundee, Small-Polar-MMV Screening Library” (2021).

Each number is a percent effect as filed. The controls that fix the scale are not given in the record; negative values are as filed. The compounds are a random part of those screened.

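Phenotypic screen: M. tuberculosis growth, cholesterol and DPPC medium, 4 days; the read-out is not stated. Concentration: 500 µM. Direction is inferred from retests: higher values go with more growth inhibition. Size under these conditions: about 18,000 compounds, about 900 of them at 50% or above in at least one test.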

| compound | percent effect |
|---|---|
| `CN(Cc1ccc(Cl)s1)C(=O)CSCCN` | -7.593% |
| `COc1ccc(NC(=O)c2cncc(C)c2)cc1CO` | 9.156% |
| `Cn1cnnc1CCNC(=O)c1cc(F)ccc1F` | 5.977% |
| `COC(C(=O)Nc1nccc(C)n1)C1CC1` (stereo not shown) | 8.118% |
| `CN(C)C(=O)N1CCN(C(=O)C2CCCNC2)CC1` (stereo not shown) | 0.862% |
| `CC(N)c1cc(F)ccc1N1CCC(O)CC1` (stereo not shown) | -15.02% |
| `CN(C)C(=O)CCCOc1nc(C(C)(C)C)no1` | 17.98% |
| `Cc1cnc(C(=O)Nc2ccccc2)cn1` | -4.432% |
| `Cc1ccc(C)c(CS(=O)(=O)CC(=O)NCC2CC2)c1` | 32.34% |
| `CN(C)CC1(CO)CCCN(Cc2ccoc2)C1` (stereo not shown) | 1.674% |
| `Cc1noc([C@@H]2CN(C3CCCC3)C[C@H]2CO)n1` | -22.55% |
| `CC(C)NC(=O)CNC(C)Cn1cncn1` (stereo not shown) | 12.77% |
| `CC(Oc1cccc(Br)c1)C(=O)NN1CCOCC1` (stereo not shown) | 5.949% |
| `Cc1nnc(CN2CCC(NC(=O)C3CC3)CC2)o1` | -12.82% |
| `CNC(=O)CN(c1cccc2ccccc12)S(C)(=O)=O` | -6.499% |
| `CC1(NC(=O)CCc2ccccc2Br)CCS(=O)(=O)C1` (stereo not shown) | -12.32% |
| `CC(C)(CNC(=O)c1c[nH]nn1)c1cccc(F)c1` | 17.49% |
| `CC(Nc1ccn(CC(F)(F)F)n1)C(=O)N1CCCC1` (stereo not shown) | -3.277% |
| `CCc1cc(C)c(C(=O)NC2CNC[C@@H]2OC)o1` (stereo partly shown) | 10.81% |
| `Cc1[nH][nH]c(=O)c1CCN` | 54.99% |
| `CNC(=O)[C@@H](C)NCC=Cc1ccc(F)cc1` | 21.1% |
| `N#Cc1ncn(CC(=O)c2ccc3c(c2)CCO3)n1` | -8.485% |
| `COc1cccc(C(=O)Nc2ccnn2C(C)C)c1` | 56.04% |
| `CNCC(=O)N1CCC(Cc2cccc(C(N)=O)c2)C1` (stereo not shown) | 12.41% |
| `COCC1CCN(Cc2ccc3c(c2)OCO3)C1` (stereo not shown) | 17.88% |
| `CC(N)c1cccc(OCc2ccccn2)c1` (stereo not shown) | 29.31% |
| `Cc1nccc(O)c1OCC(=O)Nc1ccncc1` | 7.944% |
| `CN1CCN(CCOc2ccc(C#N)cc2)CC1` | 2.887% |
| `CC(=O)c1cc(CN2CCCC2c2nc(C)n[nH]2)cs1` (stereo not shown) | 13.37% |
| `Cc1nc(C2CC(O)C2)cc(N2CC[C@@H](O)C2)n1` (stereo partly shown) | 18.41% |
| `CC(NCC1CC1)c1nnc2ccccn12` (stereo not shown) | -25.43% |
| `O=C1CCN(C(=O)CCc2ccc(Br)cc2F)CCN1` | 18.46% |
| `CC(=O)c1cc(Br)cc(F)c1OCC(N)=O` | 0.6922% |
| `CN(C)[C@@H]1CN(C(=O)c2ccnc(O)c2)C[C@H]1CO` | 3.791% |
| `COCC(=O)N1CCN(C)Cc2ccccc21` | -6.164% |
| `CC(O)C1CCN(Cc2nc(N)nc(N(C)C)n2)CC1` (stereo not shown) | 5.605% |
| `CC(C(=O)NCc1ncccc1F)N1CCSCC1` (stereo not shown) | 17.16% |
| `c1csc(CSCCNC2=NCCN2)c1` | 49.99% |
| `NCc1ccc(OC2CCCC2)nc1` | -9.115% |
| `CCOCC(=O)Nc1ccc2c(c1)CCN2C(C)=O` | 11.45% |
| `OCCNc1nc2ccccc2s1` | -7.277% |
| `NS(=O)(=O)NC(c1cc(F)ccc1F)C1CC1` (stereo not shown) | -5.96% |
| `O=C1CC(c2ccc(F)cc2F)c2cn[nH]c2N1` (stereo not shown) | 5.442% |
| `Nc1cncc(CC2CC(=O)N(c3ccccc3)C2)c1` (stereo not shown) | 32.42% |
| `CCCn1ccnc1CNC(=O)C(C)NC(=O)OC` (stereo not shown) | -18.17% |
| `CC(C)c1cc(C(=O)N[C@@H]2CCOC[C@H]2O)no1` | 15.76% |
| `N[C@H]1CCCc2cc(F)ccc21` | -391.5% |
| `CCc1nnsc1C(=O)NCc1cccnc1N(C)C` | -8.138% |
| `Cc1cc(C(=O)NCC(O)c2ccccc2Cl)no1` (stereo not shown) | 31.58% |
| `OCCC1(NCc2ccc(F)cc2)CCOCC1` | 4.381% |
| `c1ccc(OCCCNCc2cccnc2)nc1` | 12.12% |
| `CNCCCNC(=O)CCc1ccsc1` | 11.36% |
| `CC1CCCCN1CC(=O)NC1(C#N)CCCC1` (stereo not shown) | 5.007% |
| `Cc1n[nH]cc1CNCc1ccccc1CO` | 21.13% |
| `CCCOc1cccc(C(=O)N(C)CC(N)=O)c1` | 12.17% |

Repeated from the top, 7 entries:

compound,percent effect
CN(Cc1ccc(Cl)s1)C(=O)CSCCN,-7.593%
COc1ccc(NC(=O)c2cncc(C)c2)cc1CO,9.156%
Cn1cnnc1CCNC(=O)c1cc(F)ccc1F,5.977%
COC(C(=O)Nc1nccc(C)n1)C1CC1 (stereo not shown),8.118%
CN(C)C(=O)N1CCN(C(=O)C2CCCNC2)CC1 (stereo not shown),0.862%
CC(N)c1cc(F)ccc1N1CCC(O)CC1 (stereo not shown),-15.02%
CN(C)C(=O)CCCOc1nc(C(C)(C)C)no1,17.98%